Values from PubChem BioAssay AID1159584 (Peter MacCallum Cancer Centre, 2016).
In all, the deposit lists about 18,000 reagents; below is a part drawn at random. Further read-outs or replicates are left out here. Reagent sequences are not shown. Not stated in the record: the amount of reagent, the time to read-out.

- Purpose: 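Genes whose loss is lethal only together with E-cadherin loss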 (primary screen)
- Cell system: human MCF10A breast epithelial cells, parental and CDH1-null
- Knock-down reagent: siRNA against human genes
- Measured: 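Cell viability by CellTiter-Glo ATP luminescence, each line scaled to the mean of mock wells across plates, then CDH1-null over parental ratio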
- Direction: CDH1-null / parental viability ratio: higher = CDH1-null cells survive relatively better than parental

gene knocked down	CDH1-null / parental viability ratio
DNAJC6	1
EIF2B1	0.84
POLR1A	1.14
HSD3B2	1.01
CRISP3	1.2
PCDHA6	1.13
ABHD8	1
ZNF184	0.54
MMD2	0.92
CCDC184	1
BEST4	0.95
MAK	1.09
RBM41	1
RAB6D	1.19
HCFC1	1.07
OR1E1	1
C9	1.05
MYH13	1.14
FPR1	1.42
LSM5	1.4
DNAJC25	0.83
MTA3	1.19
PPFIA2	1.15

Copied from the entries so far (9 entries):
gene knocked down	CDH1-null / parental viability ratio
POLR1A	1.14
HSD3B2	1.01
CRISP3	1.2
PCDHA6	1.13
ABHD8	1
ZNF184	0.54
MMD2	0.92
CCDC184	1
BEST4	0.95

The results go on:
gene knocked down	CDH1-null / parental viability ratio
NUDT15	1.26
SNAPC5	0.7
VTCN1	0.81
TAF15	0.98
KLHL21	1.06
VIL1	0.8
MOAP1	1.32
TXNL4A	1.06
RNF8	1.02
NMNAT3	1.05
CEACAM6	1.15
ADAMTS2	1.24
TSPAN33	0.94
GLB1L3	1.01
TPM3	0.93
SERPINI1	1.33
OR52E2	1.09
PBRM1	1.15
BARD1	0.97
LAMTOR2	0.95
KDR	1.02
MTHFD1	0.95
FANCD2OS	1.13
SLC22A16	0.91
ADHFE1	1.34
STX3	1.05
UFSP1	0.9
NR3C2	1
TPT1	0.85
TM9SF4	1.11
FOLH1B	1.29
MYOT	1.02
PGAM1	1.25
ARMH4	0.88
IGDCC4	0.94
EIF1AY	1.04
LATS2	0.91
FOLH1	1.21
PLD4	0.96
LRRC47	0.72
PAIP2	0.9
PCDHA12	1.06
ITFG1	0.97
TCF7	0.91
NAP1L3	0.98
